In article PMC9277809:
These are yes or no findings as the source states them, for the method shown. Binding seen in cells or lysates may run through a third protein. Some results given as binding are weak or reduced against the parent protein; the word gives no strength. Sequences can lack the tags named with a protein.

How the values were obtained:
[1] = biological target: T1, OsNPR3-HA (rice (Oryza sativa L.)) (UniProt Q75HA6); assay: co-IP; GFP-tagged substrate and HA-tagged E3 co-expressed in N. benthamiana leaves by agro-infiltration, 72 h; immunoprecipitated with anti-HA/agarose beads; blot with anti-GFP or anti-HA
T1 sequence: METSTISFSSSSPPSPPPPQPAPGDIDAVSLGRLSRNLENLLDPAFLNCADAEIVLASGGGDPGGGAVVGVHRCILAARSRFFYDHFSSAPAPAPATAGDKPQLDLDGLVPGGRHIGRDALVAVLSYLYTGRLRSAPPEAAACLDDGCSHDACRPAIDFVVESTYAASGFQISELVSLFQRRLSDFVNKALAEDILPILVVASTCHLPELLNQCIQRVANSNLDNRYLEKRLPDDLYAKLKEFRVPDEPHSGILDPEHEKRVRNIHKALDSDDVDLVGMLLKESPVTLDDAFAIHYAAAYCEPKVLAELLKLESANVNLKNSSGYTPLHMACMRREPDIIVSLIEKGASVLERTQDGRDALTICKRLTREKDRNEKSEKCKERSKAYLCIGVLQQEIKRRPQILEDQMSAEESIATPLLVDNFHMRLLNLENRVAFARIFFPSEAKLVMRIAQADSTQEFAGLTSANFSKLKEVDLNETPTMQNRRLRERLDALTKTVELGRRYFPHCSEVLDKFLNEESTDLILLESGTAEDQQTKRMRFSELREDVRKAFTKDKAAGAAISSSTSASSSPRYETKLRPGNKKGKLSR

[2] = biological target: T2, OsNPR2-HA (rice (Oryza sativa L.)) (UniProt Q0JJ01); assay: as above
T2 sequence: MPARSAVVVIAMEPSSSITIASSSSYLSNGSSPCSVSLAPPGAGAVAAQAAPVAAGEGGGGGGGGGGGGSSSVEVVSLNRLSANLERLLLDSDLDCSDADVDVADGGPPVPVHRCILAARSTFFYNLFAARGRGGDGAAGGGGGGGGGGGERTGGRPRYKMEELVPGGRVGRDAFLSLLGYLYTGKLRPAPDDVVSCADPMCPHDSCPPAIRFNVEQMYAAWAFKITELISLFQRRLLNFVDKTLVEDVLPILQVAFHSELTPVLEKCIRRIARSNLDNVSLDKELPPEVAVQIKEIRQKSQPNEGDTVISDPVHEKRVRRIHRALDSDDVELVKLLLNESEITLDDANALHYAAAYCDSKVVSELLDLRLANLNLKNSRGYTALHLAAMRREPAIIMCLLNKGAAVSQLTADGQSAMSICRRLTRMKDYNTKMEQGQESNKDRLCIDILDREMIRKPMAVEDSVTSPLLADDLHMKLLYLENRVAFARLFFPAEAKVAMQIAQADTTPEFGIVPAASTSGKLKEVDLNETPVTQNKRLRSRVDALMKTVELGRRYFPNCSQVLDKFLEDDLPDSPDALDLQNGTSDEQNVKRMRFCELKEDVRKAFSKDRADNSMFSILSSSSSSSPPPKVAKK

binding [1]: binds
binding [2]: binds
B1: NRR-GFP (protein, UniProt Q5ZEF1 1-127)
chain: MDATTTAKRKRPAASDIADDAPTTVDEVSDAEVEEFYAILRRMRDATRRLGARPPPPRAPAWRPSFSWEDFADAPPKQAPPPPQQPADHERVAENATPPRRPAPGLDLNVEPPSDAPATPRSARAPA
